AC50 data for 62 compounds are collected here from PubChem BioAssay AID445 (National Center for Advancing Translational Sciences (NCATS), 2006).

The other results are listed elsewhere or left out. Shown are side measurements of this screen, not its main read-out; they come without a call. Compounds called inactive in the main read-out are mostly missing here. Potencies come from curve fits of mixed quality, noted in brackets.

This assay in a line: IkB Signaling. The following applies: ABC-DLBCL IkBa-CBG/CBR dual luciferase ratio (green luciferase fused to IkBa over red control in OCI-Ly3 lymphoma cells), 4 h. Put shortly: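 Curves were fitted separately to fusion (green), unfused (red) and ratio luminescence, then classed by r2, magnitude and activity. Cells: OCI-Ly3, 4 h compound plus doxycycline at 37C; 10 uM MG-132 defined full response.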
The mark [1] stands for this setting: measured here: control luc red channel unless noted.

Broadly, the AC50 is the concentration giving half of the maximal activity seen. With `Cn1c(=O)oc2cc(S(=O)(=O)N3CCC(C(=O)N4CCN(c5cccc(Cl)c5)CC4)CC3)ccc21`, under setting [1], the AC50 is 12.6 µM [falling, partial curve].
Regarding `CCOc1ccc(CCNC(=O)c2ccc(CS(=O)Cc3ccc(Cl)cc3)o2)cc1` (stereo not drawn), the AC50 under setting [1] was 25.1 µM [falling, partial curve].
Regarding `Nc1cccc(-c2nc3ccc(N)cc3s2)c1`, the AC50 under setting [1] is 25.1 µM [falling, single point].
For `CC(C)c1nc(SCC(=O)N2CCCC2)c2ccccc2n1`, the half-maximal activity concentration (AC50) under setting [1] was 31.6 µM [falling, single point].
On to `CC(C)c1ccc(NC(=O)C(Cc2ccccc2)NS(=O)(=O)c2ccc3c(c2)CCC(=O)N3)cc1` (stereo not drawn), for which the AC50 under setting [1] was 39.8 µM [falling, partial curve].
Same read-out and setting: the result for `COc1cc2ncc3c(-c4ccccc4)nn(-c4ccc(C)cc4)c3c2cc1OC` reads 20 µM [falling, partial curve]; that for `Cc1ccc(OCC(=O)Nc2ccc3nc(SCC(=O)N(C)c4ccccc4)sc3c2)cc1`, 7.94 µM [falling, full curve]; that for `COc1cc(NC(=O)c2ncn(-c3ccccc3)n2)cc(OC)c1`, 3.98 µM [falling, full curve].
On the same count and under the same terms, the result for `Cn1ncc(C(=O)N2CCN(c3ccccc3F)CC2)c1C1CCN(C(=O)OC(C)(C)C)CC1` reads 39.8 µM [falling, single point].
As to `C/C(CCc1oc2ccccc2c1-c1ccc(C)o1)=N/O`, under setting [1], the AC50 is 31.6 µM [falling, single point].
On the same count and under the same terms, the result for `O=C1c2ccccc2C(=O)C12Cc1ccccc1N1CCN(c3ccccc3)CC12` (stereo not drawn) reads 15.8 µM [falling, partial curve]; that for `Cc1ccc(NC(=O)c2nc(-c3ccncc3)no2)c(Cl)c1`, 1.58 µM [rising, full curve, poor fit].
As for `CCOc1ccc(NC(=O)c2oc3ccccc3c2NC(=O)Cc2cccc(C)c2)cc1`, the AC50 under setting [1] was 10 µM [falling, partial curve].
Still for that read-out and setting: next, `O=C(CCCOc1ccccc1)Nc1cccc(C(=O)O)c1`: 5.01 µM [falling, partial curve]; `COc1ccc(OC)c(NS(=O)(=O)c2ccc(Br)s2)c1`: 39.8 µM [falling, single point]; `CC(C)c1ccc(NC(=O)CCNS(=O)(=O)c2cccc3nsnc23)cc1`: 0.126 µM [falling, full curve, poor fit].
Take `COc1ccc(C(=O)Oc2ccc(C(c3c(C)[nH][nH]c3=O)c3c(C)[nH][nH]c3=O)cc2OC)cc1`: the AC50 under setting [1] was 15.8 µM [falling, partial curve].
Regarding `CCCN1C(C(=O)c2ccccc2)=C(OC(=O)c2ccc(C)cc2)c2ccccc2S1(=O)=O`, the concentration at half-maximal activity (AC50) under setting [1] is 10 µM [falling, partial curve].
On the same count and under the same terms, the result for `COc1ccc(NC(=O)c2c(C)oc3ccc(O)c(CN4CCOCC4)c23)cc1` reads 25.1 µM [falling, single point].
Consider `Cc1cccc(NC(=O)CSc2nc(=O)n(Cc3cccnc3)c3c2CCC3)c1`, for which the AC50 under setting [1] was 20 µM [falling, partial curve].
Turning to `O=C(Cn1c(=O)nc(-c2ccccc2)c2cc(Cl)ccc21)NCCc1ccccc1`, the AC50 under setting [1] is 7.94 µM [falling, partial curve].
Take `Cc1ccc(O)c(-c2n[nH]c3c2C(c2ccccc2F)N(Cc2ccco2)C3=O)c1` (stereo not drawn): under setting [1], the half-maximal activity concentration (AC50) was 31.6 µM [falling, single point].
Same read-out and setting: next, `Cc1sc2ncn(CC(=O)N3CCN(c4ccc(F)cc4)CC3)c(=O)c2c1S(=O)(=O)N1CCN(c2ncccn2)CC1`: 15.8 µM [falling, single point].
The same measure, in the same setting: the result for `COc1cccc(CNC(=O)CCS(=O)(=O)c2ccc3c(c2)CC(C)N3C(=O)C2CC2)c1` (stereo not drawn) reads 12.6 µM [rising, partial curve]; that for `CCOc1ccc(NC(=O)CN2CCN(c3ccc(Cl)cc3)CC2)cc1`, 12.6 µM [falling, partial curve]; that for `Cc1ccccc1-n1ncc2c(SCC(=O)NCc3cccs3)ncnc21`, 39.8 µM [falling, single point].
Same read-out and setting: next, `O=C(c1cc(F)cc(F)c1)N1CCC(c2nc(-c3ccc(S(=O)(=O)N4CCCC4)cc3)no2)CC1`: 12.6 µM [falling, partial curve]; `O=C(NCc1ccco1)C(c1ccco1)N(C(=O)Cn1nnc2ccccc21)c1ccc2c(c1)CCC2` (stereo not drawn): 15.8 µM [falling, partial curve]; `COc1ccc(OC)c(CCNC(=O)c2cc3c(=O)n(C)c4ccccc4c3n2C)c1`: 15.8 µM [falling, partial curve].
Take `O=C(O)c1ccc(COc2ccc(Cl)cc2)o1`: the AC50 under setting [1] is 15.8 µM [falling, partial curve].
On the same count and under the same terms, the result for `Cc1cc(C(=O)Cn2nnc3ccccc3c2=O)c(C)n1Cc1cccs1` reads 25.1 µM [falling, partial curve]; that for `O=C(NCC1CCN(Cc2ccc(F)cc2)CC1)c1cc2ccc3cccnc3c2[nH]1`, 15.8 µM [falling, partial curve]; that for `CCOc1ccc(NC(=O)Cn2c(=O)oc3cc(S(=O)(=O)N4CCC(C)CC4)ccc32)cc1`, 3.98 µM [falling, partial curve].
`COc1ccc(-c2csc(N3CCN(C(=O)c4ccco4)CC3)n2)cc1`: the AC50 is, setting by setting: (measured here: IkB-luc green channel) 25.1 µM [falling, single point]; (measured here: control luc red channel) 10 µM [falling, partial curve].
As for `COc1ccc(CCn2c(=O)c3cccnc3n(CC(=O)Nc3cccc(C)c3)c2=O)cc1OC`, the half-maximal activity concentration (AC50) under setting [1] is 15.8 µM [falling, single point].
Same read-out and setting: next, `CCOC(=O)C1CCN(C(=O)Cn2nc(C)n3c(cc4cc(C)ccc43)c2=O)CC1`: 31.6 µM [falling, single point]; `COc1cc(-c2c(C#N)c(N)nc3c2CCCC3)ccc1O`: 15.8 nM [rising, full curve] [measured here: IkB-luc green channel].
As for `Cc1cc2nc(-c3ccc(Br)cc3)cc(C(F)(F)F)n2n1`, the concentration at half-maximal activity (AC50) under setting [1] was 0.01 µM [rising, full curve].
Turning to `CCc1nc2c(sc3nc4c(cc32)COC(C)(C)C4)c(=O)n1Cc1ccco1`, the concentration at half-maximal activity (AC50) under setting [1] is 10 µM [falling, partial curve].
Still for that read-out and setting: next, `Cc1nc2c(C(=O)NCCc3ccc(Cl)cc3)c[nH]n2c(=O)c1Cc1ccccc1F`: 10 µM [falling, partial curve]; `COc1c(S(=O)(=O)N2CCCCC2)ccc2c(S(=O)(=O)N3CCCCC3)cccc12`: 3.98 µM [falling, partial curve]; `CCc1ccc(N2CCn3c2nc2c3c(=O)n(Cc3c(F)cccc3Cl)c(=O)n2C)cc1`: 20 µM [falling, partial curve].
As for `Cc1ccc2nc(NS(=O)(=O)c3ccc(Cl)cc3)c(Nc3ccc(C(=O)O)cc3)nc2c1`, the AC50 under setting [1] was 0.398 µM [falling, full curve].
Turning to `CCOc1ccc2[nH]c3c(N4CCN(c5ccccn5)CC4)ncnc3c2c1`, under setting [1], the AC50 was 10 µM [falling, partial curve].
In the case of `CCc1ccc(Sc2cc(C(=O)NCCCOC(C)C)c3ccccc3n2)cc1`, under setting [1], the AC50 was 15.8 µM [falling, partial curve].
Same read-out and setting: next, `Cc1cc(C)cc(OCC(=O)Nc2ccc(Cl)c(-c3nc4ncccc4o3)c2)c1`: 7.94 µM [falling, full curve]; `CCOC(=O)c1oc2ccc(S(=O)(=O)n3nc(-c4cc(OC)cc(OC)c4)cc3N)cc2c1C`: 12.6 µM [falling, partial curve].
For the compound `CC(=O)Nc1ccc(-n2c(CCC(=O)O)ccc2-c2ccc(C)cc2)cc1`, under setting [1], the AC50 is 20 µM [falling, single point].
Same read-out and setting: next, `CCCOC(=O)c1cc(=O)[nH]c2ccccc12`: 7.94 µM [rising, partial curve]; `Cc1ccc(NC(=O)CSc2nc3c(oc4ccccc43)c(=O)n2Cc2ccco2)cc1`: 25.1 µM [rising, partial curve, poor fit]; `CCCn1c(=O)c2sccc2n2c(CCCC(=O)N3CCN(c4cccc(C)c4C)CC3)nnc12`: 15.8 µM [falling, partial curve].
Turning to `CN(C(=O)CSc1nc2ccccc2n1CC(=O)N(C)c1ccc(F)cc1)c1ccccc1`, the AC50 under setting [1] was 12.6 µM [falling, partial curve].
Still for that read-out and setting: the result for `O=C(CCN1CCCCC1)c1ccc2c(c1)OCCO2` reads 3.98 µM [falling, full curve, poor fit]; that for `COc1ccc(N2CCN(C(=O)C3CCN(S(=O)(=O)Cc4ccccc4)CC3)CC2)cc1`, 3.16 µM [falling, partial curve].
Same read-out and setting: the result for `O=C(CSc1nccn1Cc1ccc(F)cc1)Nc1ccc2c(c1)OCO2` reads 1.26 µM [rising, full curve].
The same measure, in the same setting: next, `Cc1ccc(CNC(=O)CN2C(=O)C3(SCC(=O)N3c3cc(C)cc(C)c3)c3ccccc32)cc1` (stereo not drawn): 10 µM [falling, partial curve]; `Cc1nnc(SCC(=O)Nc2nc3c(s2)CC(C)CC3)s1` (stereo not drawn): 6.31 µM [falling, full curve, poor fit].
Turning to `c1ccc(-n2c(SCc3nc(-c4cccs4)no3)nnc2-c2ccco2)cc1`, the AC50 under setting [1] was 25.1 µM [falling, partial curve].
On the same count and under the same terms, next, `Cc1nc(-c2cccc(F)c2)sc1CCNC(=O)c1ccc(F)c(F)c1`: 25.1 µM [falling, partial curve].
The same measure, in the same setting: the result for `CCN1C(c2ccc(F)cc2)=CS/C1=C(\C#N)c1nnc2n1-c1ccccc1SC2` reads 31.6 µM [falling, single point]; that for `Cn1c(=O)c2sccc2n2c(CCC(=O)N3CCN(c4cccc(Cl)c4)CC3)nnc12`, 15.8 µM [falling, single point].
On the same count and under the same terms, the result for `CCCCC(=O)Nc1nnc(S(=O)(=O)N(CC)c2cc(C)cc(C)c2)s1` reads 12.6 µM [falling, partial curve].
